# The other results are listed elsewhere or left out.
# Assays:
# Assay in all cases: glycan array binding signal (z-score within array); higher = stronger binding
# Settings in all cases: glycan notation: IUPAC condensed, linker removed
# [1] = target: Neu5Ac(a2-6)Gal(b1-4)GlcNAc(b1-2)Man(a1-3)[GlcNAc(b1-2)Man(a1-6)]Man(b1-4)GlcNAc(b1-4)GlcNAc
# Summary of the method: (§1)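 The Consortium for Functional Glycomics database supplied 3228 glycan arrays, of which those lacking an available protein sequence were dropped. The binding signal, a within-array Z-score, was averaged across arrays of the same protein sequence and across linkers. Negative scores can be read as non-binding.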
# [2] = target: Neu5Ac(a2-6)Gal(b1-4)GlcNAc(b1-2)Man(a1-3)[GlcNAc(b1-2)Man(b1-4)GlcNAc(b1-2)Man(a1-6)]Man(b1-4)GlcNAc(b1-4)GlcNAc
# Summary of the method: as §1
# [3] = target: Neu5Ac(a2-6)Gal(b1-4)GlcNAc(b1-2)Man(a1-3)[Man(a1-6)]Man(b1-4)GlcNAc(b1-4)GlcNAc
# Summary of the method: as §1
# [4] = target: Neu5Ac(a2-6)Gal(b1-4)GlcNAc(b1-2)Man(a1-3)[Neu5Ac(a2-6)Gal(b1-4)GlcNAc(b1-2)Man(a1-6)]Man(b1-4)GlcNAc(b1-4)GlcNAc
# Summary of the method: as §1
# [5] = target: Neu5Ac(a2-6)Gal(b1-4)GlcNAc(b1-2)Man(a1-6)Man(b1-4)GlcNAc(b1-4)GlcNAc
# Summary of the method: as §1
# [6] = target: Neu5Ac(a2-6)Gal(b1-4)GlcNAc(b1-2)Man(a1-6)[Gal(b1-4)GlcNAc(b1-2)Man(a1-3)]Man(b1-4)GlcNAc(b1-4)GlcNAc
# Summary of the method: as §1
# [7] = target: Neu5Ac(a2-6)Gal(b1-4)GlcNAc(b1-2)Man(a1-6)[GlcNAc(b1-2)Man(a1-3)]Man(b1-4)GlcNAc(b1-4)GlcNAc
# Summary of the method: as §1
# [8] = target: Neu5Ac(a2-6)Gal(b1-4)GlcNAc(b1-2)Man(a1-6)[Man(a1-3)]Man(b1-4)GlcNAc(b1-4)GlcNAc
# Summary of the method: as §1
# [9] = target: Neu5Ac(a2-6)Gal(b1-4)GlcNAc(b1-3)Gal(b1-3)GlcNAc
# Summary of the method: as §1
# [10] = target: Neu5Ac(a2-6)Gal(b1-4)GlcNAc(b1-3)Gal(b1-4)GlcNAc
# Summary of the method: as §1
# [11] = target: Neu5Ac(a2-6)Gal(b1-4)GlcNAc(b1-3)Gal(b1-4)GlcNAc(b1-3)Gal(b1-4)GlcNAc
# Summary of the method: as §1
# [12] = target: Neu5Ac(a2-6)Gal(b1-4)GlcNAc(b1-3)Gal(b1-4)[Fuc(a1-3)]GlcNAc(b1-3)Gal(b1-4)[Fuc(a1-3)]GlcNAc
# Summary of the method: as §1
# [13] = target: Neu5Ac(a2-6)Gal(b1-4)GlcNAc(b1-3)GalNAc
# Summary of the method: as §1
# [14] = target: Neu5Ac(a2-6)Gal(b1-4)GlcNAc6S
# Summary of the method: as §1
# Neu5Ac(a2-6)GalNAc = target: Neu5Ac(a2-6)GalNAc
# Summary of the method: as §1
# [15] = target: Neu5Ac(a2-6)GalNAc(b1-4)GlcNAc
# Summary of the method: as §1
# [16] = target: Neu5Ac(a2-6)GlcNAc(b1-4)GlcNAc
# Summary of the method: as §1
# [17] = target: Neu5Ac(a2-6)GlcNAc(b1-4)GlcNAc(b1-4)GlcNAc
# Summary of the method: as §1
# Neu5Ac(a2-8)Neu5Ac = target: Neu5Ac(a2-8)Neu5Ac
# Summary of the method: as §1
# [18] = target: Neu5Ac(a2-8)Neu5Ac(a2-3)Gal(b1-3)GalNAc(b1-4)[Neu5Ac(a2-8)Neu5Ac(a2-3)]Gal(b1-4)Glc
# Summary of the method: as §1
# [19] = target: Neu5Ac(a2-8)Neu5Ac(a2-3)Gal(b1-4)Glc
# Summary of the method: as §1
# [20] = target: Neu5Ac(a2-8)Neu5Ac(a2-3)[Gal(b1-3)GalNAc(b1-4)]Gal(b1-4)Glc
# Summary of the method: as §1
# [21] = target: Neu5Ac(a2-8)Neu5Ac(a2-3)[GalNAc(b1-4)]Gal(b1-4)Glc
# Summary of the method: as §1
# [22] = target: Neu5Ac(a2-8)Neu5Ac(a2-8)Neu5Ac
# Summary of the method: as §1
# [23] = target: Neu5Ac(a2-8)Neu5Ac(a2-8)Neu5Ac(a2-3)Gal(b1-4)Glc
# Summary of the method: as §1
# [24] = target: Neu5Ac(a2-8)Neu5Ac(a2-8)Neu5Ac(a2-3)[GalNAc(b1-4)]Gal(b1-4)Glc
# Summary of the method: as §1
# [25] = target: Neu5Ac(a2-8)Neu5Ac(a2-8)Neu5Ac(a2-8)Neu5Ac(a2-3)[GalNAc(b1-4)]Gal(b1-4)Glc
# Summary of the method: as §1
# [26] = target: Neu5Ac(b2-6)Gal(b1-4)GlcNAc
# Summary of the method: as §1
# Neu5Ac(b2-6)GalNAc = target: Neu5Ac(b2-6)GalNAc
# Summary of the method: as §1
# [27] = target: Neu5Ac9Ac(a2-3)Gal(b1-3)GlcNAc
# Summary of the method: as §1
# [28] = target: Neu5Ac9Ac(a2-3)Gal(b1-4)GlcNAc
# Summary of the method: as §1
# [29] = target: Neu5Ac9Ac(a2-6)Gal(b1-4)GlcNAc
# Summary of the method: as §1
# [30] = target: Neu5Gc(a2-3)Gal(b1-3)GlcNAc
# Summary of the method: as §1
# [31] = target: Neu5Gc(a2-3)Gal(b1-3)[Fuc(a1-4)]GlcNAc
# Summary of the method: as §1
# Neu5Gc(a2-3)Gal(b1-4)Glc = target: Neu5Gc(a2-3)Gal(b1-4)Glc
# Summary of the method: as §1
# [32] = target: Neu5Gc(a2-3)Gal(b1-4)GlcNAc
# Summary of the method: as §1
# [33] = target: Neu5Gc(a2-3)Gal(b1-4)[Fuc(a1-3)]GlcNAc
# Summary of the method: as §1
# [34] = target: Neu5Gc(a2-6)Gal(b1-4)GlcNAc
# Summary of the method: as §1
# Neu5Gc(a2-6)GalNAc = target: Neu5Gc(a2-6)GalNAc
# Summary of the method: as §1
# [35] = target: Neu5Gc(b2-6)Gal(b1-4)GlcNAc
# Summary of the method: as §1
binder,measurement,setting,value
"RetS (Pseudomonas aeruginosa), Q9HUV7 (protein) MVRLRIAIGLLVSFLLLLLGPMSPAVADDAGVSSVPLQTTATTPSANQNWRLLRDESAQLRIADVLQRKEQFRPLAKRSFIFPASPQAVWLQVQLPAQKVPSWLWIFAPRVQYLDYYLVQDGQLVRDQHTGESRPFQERPLPSRSYLFSLPVDGKPMTLYVRMTSNHPLMAWFDQIDEAGLVGLEKPAYAFGMLLGGMLLLLMYNLIRFAYSRSASSLWLAAVHAALAVCAAANLGLVAFWLPGLKFNQSLTADLGALGAAVSLLWFACSFFRGTAESRLNRLLQGEALLILAVGAIIAFTQQLWFSWLIYLLVILSSLSVPLIAAWHWYRGYQPARLIVAGMIVFNAGFMVFLPVLFGTKQLDPGWLVLGVFSFATLAGLVLSVSLTERQRLIQQLNLQQRTSEAAHTAELQTKAEFLAKISHEIRTPMNGVLGMTELLLGTPLSAKQRDYVQTIHSAGNELLTLINEILDISKLESGQIELDEVQFDLNALIEDCLDIFRVKAEQQRIELISFTQPQVPRVIGGDPTRLRQVVLSLLDNAFKQTEEGEILLVVALDDQGETPRLRIAVQDSGHPFDAKEREALLTAELHSGDFLSASKLGSHLGLIIARQLVRLMGGEFGIQSGSSQGTTLSLTLPLDPQQLENPTADLDGPLQGARLLVVDDNETCRKVLVQQCSGWGLNVSAVSSGKEALAQLRTKAHLREYFDVVLLDQDMPGMTGMQLAAKIKEDPNLNHDILLIMLTGISNAPSKIIARNAGIKRILAKPVAGYTLKATLADELAQRGVSGVTNYLQPAKEAQAPSLPSDFRILVAEDNSISTKVIRGMLNKLNLQPDTASNGQEALSAMKATQYDLVLMDCEMPVLDGFSATEQLRAWEAHEQRPHTPVVALTAHILSEHKERARLVGMDGHMAKPVELSQLRELIAYWVGERDRRRQGDALPS",glycan array binding signal (z-score),[1],-0.625
same,glycan array binding signal (z-score),[2],-0.37
same,glycan array binding signal (z-score),[3],-0.125
same,glycan array binding signal (z-score),[4],1.4
same,glycan array binding signal (z-score),[5],0.077
same,glycan array binding signal (z-score),[6],0.407
same,glycan array binding signal (z-score),[7],1.56
same,glycan array binding signal (z-score),[8],0.82
same,glycan array binding signal (z-score),[9],-1.11
same,glycan array binding signal (z-score),[10],0.395
same,glycan array binding signal (z-score),[11],0.156
same,glycan array binding signal (z-score),[12],0.616
same,glycan array binding signal (z-score),[13],-0.906
same,glycan array binding signal (z-score),[14],0.369
same,glycan array binding signal (z-score),Neu5Ac(a2-6)GalNAc,-1.85
same,glycan array binding signal (z-score),[15],-0.76
same,glycan array binding signal (z-score),[16],-0.148
same,glycan array binding signal (z-score),[17],-0.596
same,glycan array binding signal (z-score),Neu5Ac(a2-8)Neu5Ac,0.075
same,glycan array binding signal (z-score),[18],-0.48
same,glycan array binding signal (z-score),[19],-1.21
same,glycan array binding signal (z-score),[20],0.044
same,glycan array binding signal (z-score),[21],0.67
same,glycan array binding signal (z-score),[22],-0.444
same,glycan array binding signal (z-score),[23],0.263
same,glycan array binding signal (z-score),[24],0.181
same,glycan array binding signal (z-score),[25],1.03
same,glycan array binding signal (z-score),[26],0.542
same,glycan array binding signal (z-score),Neu5Ac(b2-6)GalNAc,0.789
same,glycan array binding signal (z-score),[27],-0.749
same,glycan array binding signal (z-score),[28],-0.425
same,glycan array binding signal (z-score),[29],-0.605
same,glycan array binding signal (z-score),[30],-1.31
same,glycan array binding signal (z-score),[31],1.34
same,glycan array binding signal (z-score),Neu5Gc(a2-3)Gal(b1-4)Glc,2.06
same,glycan array binding signal (z-score),[32],-0.459
same,glycan array binding signal (z-score),[33],0.919
same,glycan array binding signal (z-score),[34],-0.427
same,glycan array binding signal (z-score),Neu5Gc(a2-6)GalNAc,-0.622
same,glycan array binding signal (z-score),[35],-0.212

# Exported as tab-separated lines: entries from further up.
binder	measurement	setting	value
RetS (Pseudomonas aeruginosa), Q9HUV7 (protein) MVRLRIAIGLLVSFLLLLLGPMSPAVADDAGVSSVPLQTTATTPSANQNWRLLRDESAQLRIADVLQRKEQFRPLAKRSFIFPASPQAVWLQVQLPAQKVPSWLWIFAPRVQYLDYYLVQDGQLVRDQHTGESRPFQERPLPSRSYLFSLPVDGKPMTLYVRMTSNHPLMAWFDQIDEAGLVGLEKPAYAFGMLLGGMLLLLMYNLIRFAYSRSASSLWLAAVHAALAVCAAANLGLVAFWLPGLKFNQSLTADLGALGAAVSLLWFACSFFRGTAESRLNRLLQGEALLILAVGAIIAFTQQLWFSWLIYLLVILSSLSVPLIAAWHWYRGYQPARLIVAGMIVFNAGFMVFLPVLFGTKQLDPGWLVLGVFSFATLAGLVLSVSLTERQRLIQQLNLQQRTSEAAHTAELQTKAEFLAKISHEIRTPMNGVLGMTELLLGTPLSAKQRDYVQTIHSAGNELLTLINEILDISKLESGQIELDEVQFDLNALIEDCLDIFRVKAEQQRIELISFTQPQVPRVIGGDPTRLRQVVLSLLDNAFKQTEEGEILLVVALDDQGETPRLRIAVQDSGHPFDAKEREALLTAELHSGDFLSASKLGSHLGLIIARQLVRLMGGEFGIQSGSSQGTTLSLTLPLDPQQLENPTADLDGPLQGARLLVVDDNETCRKVLVQQCSGWGLNVSAVSSGKEALAQLRTKAHLREYFDVVLLDQDMPGMTGMQLAAKIKEDPNLNHDILLIMLTGISNAPSKIIARNAGIKRILAKPVAGYTLKATLADELAQRGVSGVTNYLQPAKEAQAPSLPSDFRILVAEDNSISTKVIRGMLNKLNLQPDTASNGQEALSAMKATQYDLVLMDCEMPVLDGFSATEQLRAWEAHEQRPHTPVVALTAHILSEHKERARLVGMDGHMAKPVELSQLRELIAYWVGERDRRRQGDALPS	glycan array binding signal (z-score)	[11]	0.156
same	glycan array binding signal (z-score)	[16]	-0.148
same	glycan array binding signal (z-score)	[23]	0.263

# Source: the supplement of paper PMC8728848
